Assay results reported in PubChem BioAssay AID445 (National Center for Advancing Translational Sciences (NCATS), 2006).
The list shows a part of the results. Further columns of the screen follow, without active or inactive calls. The list favours compounds with an active or inconclusive main result. Words in brackets tell the shape of the fitted curve; partial curves, single points and poor fits give uncertain potencies.

assay: IkB Signaling; settings: ABC-DLBCL IkBa-CBG/CBR dual luciferase ratio (green luciferase fused to IkBa over red control in OCI-Ly3 lymphoma cells), 4 h; measured here: control luc red channel unless noted
How it was run: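 In this assay, an IκBα–CBG68 fusion accumulates when IKK-driven degradation is blocked; native CBR normalizes for cell number. OCI-Ly3 cells were treated 4 h with compound and doxycycline, then green and red light read after Chroma-Glo addition.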

Row | Compound | AC50
1 | C=CCc1cccc(CNc2nc3ccccc3n2CC)c1O | 31.6 µM [falling, single point]
2 | COc1ccc(Cl)cc1NC(=O)Cn1c(=O)n(CCCC(=O)NCCc2ccc(OC)c(OC)c2)c(=O)c2ccccc21 | 15.8 µM [falling, partial curve]
3 | Cc1ccc(N(CC(=O)Nc2ccc3c(c2)OCCO3)S(=O)(=O)c2c(C)noc2C)cc1 | 15.8 µM [falling, partial curve]
4 | COc1cccc(-c2nn(C)c3sc(C(=O)N4CCN(c5ccccc5)CC4)cc23)c1 | 5.01 µM [falling, partial curve]
5 | CCOC(=O)Cc1csc(NC(=O)CSc2nnc(-n3nc(C)cc3C)c3ccccc23)n1 | 20 µM [falling, partial curve]
6 | CCn1c(C)c(C)c2cc(C(=O)N3CCN(c4cccc(C)c4C)CC3)ccc21 | 25.1 µM [falling, partial curve]
7 | CCOc1ccc(-n2c(=O)c3c4c(sc3n(CC(=O)NC(C)CC)c2=O)CCC4)cc1 (stereo not drawn) | 1.26 µM [rising, full curve, poor fit]
8 | CCOC(=O)c1ccc(N2C(=O)c3n[nH]c(-c4cccs4)c3C2c2cccc(OC)c2)cc1 (stereo not drawn) | 12.6 µM [falling, partial curve]
9 | CN(C)S(=O)(=O)N(CC(=O)NCCSCc1cccc(Cl)c1)c1ccccc1 | 15.8 µM [falling, single point]
10 | CCC(=O)Nc1ccc2nc(SCc3ccccc3)sc2c1 | 0.501 µM [rising, partial curve]
11 | COc1ccc(C)cc1NC(=O)CSc1nc(=O)[nH]c2c1CCCC2 | 10 µM [falling, partial curve, poor fit]
12 | CCC1CN(S(=O)(=O)c2ccc3c(c2)NC(=O)CC(=O)N3)c2cc(Cl)ccc2O1 (stereo not drawn) | 3.16 µM [falling, full curve]
13 | Cc1cccc(N2CCN(C(=O)CCC(=O)NNc3nc4ccccc4c4nc(C)nn34)CC2C)c1 (stereo not drawn) | 25.1 µM [falling, single point]
14 | CCC(=O)O[C@@]1(C(=O)CCl)[C@@H](C)C[C@@H]2[C@H]3CCC4=CC(=O)C=C[C@@]4(C)[C@]3(F)[C@@H](O)C[C@@]21C | 12.6 nM [rising, full curve] [measured here: IkB-luc green channel]
15 | CC(=O)[C@]1(O)CC[C@@H]2[C@H]3C[C@@H](C)C4=CC(=O)CC[C@@]4(C)[C@H]3[C@@H](O)C[C@]21C | 2.51 nM [rising, full curve] [measured here: IkB-luc green channel]
16 | CCOc1ccc(CNCc2c(C(=O)O)n(Cc3ccc(OC)cc3)c3ccccc23)cc1 | 12.6 µM [falling, partial curve]
17 | COc1ccc(-c2nc3c(C#N)c[nH]n3c2NC2CCCC2)cc1 | 15.8 µM [falling, partial curve]
18 | Cc1ccc(NC(=O)Cn2c(=O)n(CCCS(=O)(=O)C3CCCCC3)c(=O)c3ccccc32)cc1F | 12.6 µM [falling, partial curve]
19 | CC(NC(=O)c1ccc(Cn2c(=O)c3cccn3c3cccnc32)cc1)c1ccccc1 (stereo not drawn) | 31.6 µM [falling, single point]

Molecules above that have fluorine:
Row | Compound | AC50
14 | CCC(=O)O[C@@]1(C(=O)CCl)[C@@H](C)C[C@@H]2[C@H]3CCC4=CC(=O)C=C[C@@]4(C)[C@]3(F)[C@@H](O)C[C@@]21C | 12.6 nM [rising, full curve] [measured here: IkB-luc green channel]
18 | Cc1ccc(NC(=O)Cn2c(=O)n(CCCS(=O)(=O)C3CCCCC3)c(=O)c3ccccc32)cc1F | 12.6 µM [falling, partial curve]

Carrying on:

Row | Compound | AC50
20 | O=C(C1COc2ccccc2O1)N1CCN(Cc2ccc3c(c2)OCO3)CC1 (stereo not drawn) | 15.8 µM [falling, partial curve]
21 | Cc1ccc(C)c(Nc2nc3c(S(=O)(=O)c4ccc(Br)cc4)nnn3c3ccsc23)c1 | 7.94 µM [falling, full curve]
22 | O=C(Nc1ccc(F)c(F)c1)c1cc(S(=O)(=O)NCc2ccc3c(c2)OCO3)ccc1F | 0.00631 µM [falling, full curve]
23 | Cc1ccc(CNC(=O)CSc2nc(=O)n(Cc3ccco3)c3c2CCC3)cc1 | 31.6 µM [falling, single point]
24 | O=C(NCCOc1ccccc1)c1cc2ccccc2o1 | 3.98 µM [falling, full curve]
25 | COc1ccc(C2=NC3(CCCCCC3)N(CC(=O)Nc3cccc(Cl)c3)C2=O)cc1 | 10 µM [falling, partial curve]
26 | COc1cccc(CNC(=O)CN2CCCN(Cc3ccccc3)S2(=O)=O)c1 | 0.02 µM [rising, full curve, poor fit]
27 | CC1CCN(c2ccc(-c3cccc(NS(=O)(=O)c4cccs4)c3)nn2)CC1 | 10 µM [falling, partial curve]
28 | CCCNc1nc2c(c(=O)n(C)c(=O)n2C)n1CCC(C)C | 20 µM [falling, partial curve]
29 | COc1ccccc1CNc1ccc(-c2nc(-c3ccccc3C)no2)cc1[N+](=O)[O-] | 3.16 µM [falling, full curve]
30 | Cc1cc(C)cc(NC(=O)C2CCN(C(=O)c3cnn(-c4ccccc4)c3-n3cccc3)CC2)c1 | 20 µM [falling, partial curve]
31 | CCC(C(=O)Nc1ccccc1)n1nc(-c2cc(C)ccc2C)ccc1=O (stereo not drawn) | 25.1 µM [falling, single point]
32 | Cc1ccc(CN2C(=O)C(=O)c3cc(Br)cc(C)c32)cc1 | 31.6 µM [falling, single point]
33 | O=C(CN1CCN(Cc2ccc3c(c2)OCO3)CC1)N1CCc2[nH]c3ccc(F)cc3c2C1 | 10 µM [falling, partial curve]
34 | Cc1ccccc1Nc1c(-c2cccnc2)nc2cccc(C)n12 | 20 µM [falling, partial curve]
35 | CCOc1ccc(-n2c(=O)c3c(C)c(C)sc3n(CC(=O)Nc3ccc(CC)cc3)c2=O)cc1 | 7.94 µM [falling, partial curve]
36 | CCN(C(=O)c1cc2c(=O)n(CC)c3ccccc3c2s1)c1cccc(C(F)(F)F)c1 | 20 µM [falling, partial curve]
37 | COc1ccc(Br)cc1CNC(=O)c1cnc2sc(N3CCCCCC3)nn2c1=O | 31.6 µM [falling, single point]
38 | COc1cccc(NC(=O)Cn2c(=O)ccc3cc(S(=O)(=O)N4CCC(C)CC4)ccc32)c1 | 0.0316 µM [falling, full curve, poor fit]
